From paper PMC3797037, “Structural and Mechanistic Insight into DNA Unwinding by Deinococcus radiodurans UvrD” (PLoS ONE, 2013) come the findings set out here.

Where a chain is given by its changes, count along the chain named. A weaker result is weaker than the reference pair of the same experiment. For part of these data: Where a protein sequence is shown, tags need not be part of it. For part of these data: The exact form of at least one protein or probe is not confirmed.

Common to all, as to experiment: fluorescence anisotropy
What all share (settings): 1 mM AMPPNP, fluorescein-dT at position 12 of strand 1, 0.1 mg/mL BSA, 2.5 nM DNA, 0-8 µM protein, 80 µl, room temperature, recombinant protein, residues 1-745, protein details: N-terminal His-tag cleaved with TEV (pET151d), label: fluorescein (internal dT12)

The target in data set [1] is T1, drUvrD G424T (Deinococcus radiodurans) (UniProt Q9RTI9).
T1 sequence (looked up): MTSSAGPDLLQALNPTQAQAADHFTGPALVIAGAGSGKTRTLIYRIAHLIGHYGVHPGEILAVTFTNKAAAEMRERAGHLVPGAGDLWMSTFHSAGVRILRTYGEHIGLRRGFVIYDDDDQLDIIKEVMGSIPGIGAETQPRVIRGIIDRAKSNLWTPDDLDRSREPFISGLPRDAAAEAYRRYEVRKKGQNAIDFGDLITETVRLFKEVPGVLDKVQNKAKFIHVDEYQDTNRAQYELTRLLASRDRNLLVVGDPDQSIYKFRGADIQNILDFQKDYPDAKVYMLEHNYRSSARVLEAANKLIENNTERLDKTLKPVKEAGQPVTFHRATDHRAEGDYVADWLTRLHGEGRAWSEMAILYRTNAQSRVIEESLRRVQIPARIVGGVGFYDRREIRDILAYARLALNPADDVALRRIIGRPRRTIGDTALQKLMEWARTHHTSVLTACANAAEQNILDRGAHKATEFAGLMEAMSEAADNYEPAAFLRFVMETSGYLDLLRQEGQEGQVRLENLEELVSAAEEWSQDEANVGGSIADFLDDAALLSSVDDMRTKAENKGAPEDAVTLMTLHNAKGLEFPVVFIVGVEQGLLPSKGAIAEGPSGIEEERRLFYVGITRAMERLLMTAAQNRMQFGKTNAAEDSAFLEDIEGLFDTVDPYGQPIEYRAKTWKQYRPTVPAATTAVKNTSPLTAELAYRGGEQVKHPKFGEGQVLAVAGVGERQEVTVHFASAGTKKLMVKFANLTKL

Data set [2] deals with drUvrD ΔHairpin (Deinococcus radiodurans) (UniProt Q9RTI9).
Data set [3] has as its target T2, drUvrD G424T/G426T (Deinococcus radiodurans) (UniProt Q9RTI9).
T2 sequence (looked up): T1 sequence (looked up) with G426T

“TCGGTACGACCTGCGAGCACTGCTT / AAGCAGTGCTCGCAGGTCGTACCGATTTTTTTTTTTTTTT [3'-tailed dsDNA (H1T12/H3-15)]”: the results for the binding result in data set [1], in data set [2] (binding unaffected vs WT) and in data set [3] were “binds more weakly”, “binds” and “binds more weakly”, respectively.

In the case of “TCGGTACGACCTGCGAGCACTGCTT / TTTTTTTTTTTTTTTAAGCAGTGCTCGCAGGTCGTACCGA [5'-tailed dsDNA (H1T12/H5-15)]”, the binding result in data set [1], in data set [2] (slightly reduced affinity vs WT) and in data set [3] was “binds more weakly” in each case.
